{
  "sequences": {"note": "By UniProt entry, the sequences of proteins in these tests, tags left out.", "UniProt Q13435": "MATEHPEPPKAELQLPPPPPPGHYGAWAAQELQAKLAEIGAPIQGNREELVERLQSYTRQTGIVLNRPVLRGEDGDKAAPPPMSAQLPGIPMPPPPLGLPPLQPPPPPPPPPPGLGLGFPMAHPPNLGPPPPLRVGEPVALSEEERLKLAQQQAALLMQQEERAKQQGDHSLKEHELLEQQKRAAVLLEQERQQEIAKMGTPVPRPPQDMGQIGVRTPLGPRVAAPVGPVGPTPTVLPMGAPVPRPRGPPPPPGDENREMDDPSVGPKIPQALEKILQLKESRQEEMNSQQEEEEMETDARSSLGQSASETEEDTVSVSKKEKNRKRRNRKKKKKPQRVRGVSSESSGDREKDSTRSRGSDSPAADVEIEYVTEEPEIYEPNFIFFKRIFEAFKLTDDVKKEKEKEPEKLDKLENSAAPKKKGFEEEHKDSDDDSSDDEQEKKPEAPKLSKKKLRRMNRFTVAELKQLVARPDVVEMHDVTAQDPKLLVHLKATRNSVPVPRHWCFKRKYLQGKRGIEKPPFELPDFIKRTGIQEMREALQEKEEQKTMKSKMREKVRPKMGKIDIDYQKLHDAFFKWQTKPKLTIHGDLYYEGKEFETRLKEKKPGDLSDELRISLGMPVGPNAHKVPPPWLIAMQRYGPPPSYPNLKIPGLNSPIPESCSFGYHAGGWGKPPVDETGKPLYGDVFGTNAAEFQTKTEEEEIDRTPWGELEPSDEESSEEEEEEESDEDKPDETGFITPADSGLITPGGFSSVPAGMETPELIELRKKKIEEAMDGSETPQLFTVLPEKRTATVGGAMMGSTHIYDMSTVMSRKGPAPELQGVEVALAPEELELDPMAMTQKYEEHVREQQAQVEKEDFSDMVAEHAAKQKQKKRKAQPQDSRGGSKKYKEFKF"},
  "source": "paper PMC9206271",
  "biological_target": "SF3B2-TAP (splicing factor 3b subunit 2 with a tandem affinity purification tag) (UniProt Q13435)",
  "experiment": "affinity purification with mass spectrometry; SF3B2-TAP complex purified by tandem affinity purification from nuclear extracts of FaDu cells stably expressing SF3B2-TAP (GFP-TAP as control); SDS-PAGE, silver staining, bands excised, in-gel trypsin digest, LC/MS-MS; three independent experiments",
  "note": "These are yes or no findings as the source states them, for the method shown. In cells and extracts the contact can be indirect. These calls come from enrichment with a bait or labelling near it, and not all partners need be listed.",
  "data": [
    {"binder": "structural maintenance of chromosomes 1A (SMC1A) (protein, UniProt Q14683 1-1233) MGFLKLIEIENFKSYKGRQIIGPFQRFTAIIGPNGSGKSNLMDAISFVLGEKTSNLRVKTLRDLIHGAPVGKPAANRAFVSMVYSEEGAEDRTFARVIVGGSSEYKINNKVVQLHEYSEELEKLGILIKARNFLVFQGAVESIAMKNPKERTALFEEISRSGELAQEYDKRKKEMVKAEEDTQFNYHRKKNIAAERKEAKQEKEEADRYQRLKDEVVRAQVQLQLFKLYHNEVEIEKLNKELASKNKEIEKDKKRMDKVEDELKEKKKELGKMMREQQQIEKEIKEKDSELNQKRPQYIKAKENTSHKIKKLEAAKKSLQNAQKHYKKRKGDMDELEKEMLSVEKARQEFEERMEEESQSQGRDLTLEENQVKKYHRLKEEASKRAATLAQELEKFNRDQKADQDRLDLEERKKVETEAKIKQKLREIEENQKRIEKLEEYITTSKQSLEEQKKLEGELTEEVEMAKRRIDEINKELNQVMEQLGDARIDRQESSRQQRKAEIMESIKRLYPGSVYGRLIDLCQPTQKKYQIAVTKVLGKNMDAIIVDSEKTGRDCIQYIKEQRGEPETFLPLDYLEVKPTDEKLRELKGAKLVIDVIRYEPPHIKKALQYACGNALVCDNVEDARRIAFGGHQRHKTVALDGTLFQKSGVISGGASDLKAKARRWDEKAVDKLKEKKERLTEELKEQMKAKRKEAELRQVQSQAHGLQMRLKYSQSDLEQTKTRHLALNLQEKSKLESELANFGPRINDIKRIIQSREREMKDLKEKMNQVEDEVFEEFCREIGVRNIREFEEEKVKRQNEIAKKRLEFENQKTRLGIQLDFEKNQLKEDQDKVHMWEQTVKKDENEIEKLKKEEQRHMKIIDETMAQLQDLKNQHLAKKSEVNDKNHEMEEIRKKLGGANKEMTHLQKEVTAIETKLEQKRSDRHNLLQACKMQDIKLPLSKGTMDDISQEEGSSQGEDSVSGSQRISSIYAREALIEIDYGDLCEDLKDAQAEEEIKQEMNTLQQKLNEQQSVLQRIAAPNMKAMEKLESVRDKFQETSDEFEAARKRAKKAKQAFEQIKKERFDRFNACFESVATNIDEIYKALSRNSSAQAFLGPENPEEPYLDGINYNCVAPGKRFRPMDNLSGGEKTVAALALLFAIHSYKPAPFFVLDEIDAALDNTNIGKVANYIKEQSTCNFQAIVISLKEEFYTKAESLIGVYPEQGDCVISKVLTFDLTKYPDANPNPNEQ", "values": [
      {"measurement": "binding", "result": "binds"}
    ]}
  ]
}
